Experimental data: article PMC3083433
No constants are given. Whether binding was seen depends on the method and setting. In cells and extracts the contact can be indirect. Some results given as binding are weak or reduced against the parent protein; the word gives no strength.

Sequences of proteins named here, by UniProt entry; tags and fusion partners are left off. Residues count along the entry.
UniProt P09055, residues 21-798: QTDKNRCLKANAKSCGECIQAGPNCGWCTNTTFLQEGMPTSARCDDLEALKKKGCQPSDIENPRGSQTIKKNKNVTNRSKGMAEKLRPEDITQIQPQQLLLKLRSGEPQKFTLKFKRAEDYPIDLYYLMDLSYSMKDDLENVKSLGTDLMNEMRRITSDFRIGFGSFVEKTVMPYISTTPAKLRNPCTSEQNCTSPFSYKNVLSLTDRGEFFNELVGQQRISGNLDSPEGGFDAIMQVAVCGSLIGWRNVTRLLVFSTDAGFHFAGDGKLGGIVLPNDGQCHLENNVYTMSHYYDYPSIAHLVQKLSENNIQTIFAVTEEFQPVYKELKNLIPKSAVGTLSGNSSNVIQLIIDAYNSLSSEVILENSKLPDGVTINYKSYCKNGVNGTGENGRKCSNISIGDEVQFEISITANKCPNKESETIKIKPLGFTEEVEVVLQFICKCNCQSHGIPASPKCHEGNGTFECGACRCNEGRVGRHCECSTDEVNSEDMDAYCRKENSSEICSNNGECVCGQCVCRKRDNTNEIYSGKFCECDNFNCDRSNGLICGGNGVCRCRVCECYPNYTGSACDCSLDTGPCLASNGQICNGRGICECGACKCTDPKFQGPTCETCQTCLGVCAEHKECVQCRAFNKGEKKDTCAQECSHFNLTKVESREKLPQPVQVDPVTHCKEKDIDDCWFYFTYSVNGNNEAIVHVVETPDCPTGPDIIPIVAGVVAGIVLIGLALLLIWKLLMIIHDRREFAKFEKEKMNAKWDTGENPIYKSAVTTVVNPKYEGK

What was measured:
[1] = biological target: β1 integrins (mouse (endogenous in NIH3T3)) (UniProt P09055); assay: co-IP; β1 integrins immunoprecipitated from total cell lysates of NIH3T3-tTG fibroblasts 3 h after induction of tTG synthesis; immune complexes probed for β1 integrin and tTG by immunoblotting
[2] = biological target: β1 integrins (mouse (endogenous in NIH3T3)) (UniProt P09055); assay: co-IP; recycling endosomes isolated from crude membrane fraction with magnetic beads coated with antibody to Rab11 (3 h induction); β1 integrins immunoprecipitated from the endosome lysates; immune complexes probed for β1 integrin and tTG
[3] = biological target: β1 integrins (mouse (endogenous in NIH3T3)) (UniProt P09055); assay: co-IP; antibody uptake with surface-bound 9EG7-Fab against β1 integrin after metabolic labelling with 35S-Translabel (tTG induced 3 h before the end of labelling); internalized β1 integrins and associated proteins immunoprecipitated, SDS-PAGE and fluorography; tTG reprecipitated from the β1 integrin immune complexes

Measured: binding

B1: tissue transglutaminase (tTG) (enzyme, UniProt P21980 1-687)
chain: MAEELVLERCDLELETNGRDHHTADLCREKLVVRRGQPFWLTLHFEGRNYEASVDSLTFSVVTGPAPSQEAGTKARFPLRDAVEEGDWTATVVDQQDCTLSLQLTTPANAPIGLYRLSLEASTGYQGSSFVLGHFILLFNAWCPADAVYLDSEEERQEYVLTQQGFIYQGSAKFIKNIPWNFGQFEDGILDICLILLDVNPKFLKNAGRDCSRRSSPVYVGRVVSGMVNCNDDQGVLLGRWDNNYGDGVSPMSWIGSVDILRRWKNHGCQRVKYGQCWVFAAVACTVLRCLGIPTRVVTNYNSAHDQNSNLLIEYFRNEFGEIQGDKSEMIWNFHCWVESWMTRPDLQPGYEGWQALDPTPQEKSEGTYCCGPVPVRAIKEGDLSTKYDAPFVFAEVNADVVDWIQQDDGSVHKSINRSLIVGLKISTKSVGRDEREDITHTYKYPEGSSEEREAFTRANHLNKLAEKEETGMAMRIRVGQSMNMGSDFDVFAHITNNTAEEYVCRLLLCARTVSYNGILGPECGTKYLLNLNLEPFSEKSVPLCILYEKYRDCLTESNLIKVRALLVEPVINSYLLAERDLYLENPEIKIRILGEPKQKRKLVAEVSLQNPLPVALEGCTFTVEGAGLTEEQKTVEIPDPVEAGEEVKVRMDLLPLHMGLHKLVVNFESDKLKAVKGFRNVIIGPA
binds: all assays above
